Experimental data published in paper PMC10765089.
These are yes or no findings as the source states them, for the method shown. For part of these data: Binding seen in cells or lysates may run through a third protein. Some entries that bind do so weakly or less than the wild type. Where a sequence is shown, tags or fusion partners need not be part of it.

Legend:
Mito-HA-Par6A^Nter = target: T1, Mito-HA-Par6A^Nter (UniProt Q9NPB6); assay: mitochondrial relocalisation; NIH/3T3 Flp-In cells transiently transfected for 24 h with a Mito-HA-tagged half of Par6A and the cytosolic GFP-tagged other half; fixed, anti-HA staining, spinning disk confocal imaging
T1 sequence: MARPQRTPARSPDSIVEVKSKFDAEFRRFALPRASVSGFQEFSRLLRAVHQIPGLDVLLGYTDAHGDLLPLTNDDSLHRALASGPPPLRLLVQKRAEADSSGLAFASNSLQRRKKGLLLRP

Mito-HA-Par6A^Cter = target: T2, Mito-HA-Par6A^Cter (UniProt Q9NPB6); assay: as above
T2 sequence: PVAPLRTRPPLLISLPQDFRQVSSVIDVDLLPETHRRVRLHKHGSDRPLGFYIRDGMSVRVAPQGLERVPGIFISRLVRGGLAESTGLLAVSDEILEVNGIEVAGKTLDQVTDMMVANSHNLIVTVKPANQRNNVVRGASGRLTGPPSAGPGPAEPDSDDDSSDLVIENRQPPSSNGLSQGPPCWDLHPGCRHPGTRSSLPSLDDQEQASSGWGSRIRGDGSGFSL

GST-Par6^Nter = target: T3, GST-Par6^Nter (UniProt Q9NPB6); assay: pull-down; the two halves of Par6 expressed separately in E. coli BL21; lysates mixed and incubated with GST-4B resin for 1 hour at 4C; washed in 20 mM HEPES, 100 mM potassium acetate, 5% glycerol; western blot
T3 sequence: T1 sequence

B1: cytosolic GFP-Par6A^Cter (domain or fragment, UniProt Q9NPB6 121-346)
chain: T2 sequence
- binding (Mito-HA-Par6A^Nter): binds

B2: cytosolic GFP-Par6A^Nter (domain or fragment, UniProt Q9NPB6 1-121)
chain: T1 sequence
- binding (Mito-HA-Par6A^Cter): binds

B3: PC-Par6^Cter (domain or fragment, UniProt Q9NPB6 121-346)
chain: T2 sequence
- binding (GST-Par6^Nter): binds
